# This is one part of the list.
# How the values were obtained:
# Assay in all cases: glycan array binding signal (z-score within array); higher = stronger binding
# Settings in all cases: glycan notation: IUPAC condensed, linker removed; mutation: D21K
# [1] = molecular target: Gal(b1-4)GlcNAc(b1-3)Gal(b1-4)GlcNAc(b1-3)[Gal(b1-4)GlcNAc(b1-3)Gal(b1-4)GlcNAc(b1-6)]GalNAc
# Method in brief: (§1)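 The Consortium for Functional Glycomics database supplied 3228 glycan arrays, of which those lacking an available protein sequence were dropped. The binding signal, a within-array Z-score, was averaged across arrays of the same protein sequence and across linkers. Negative scores can be read as non-binding.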
# [2] = molecular target: Gal(b1-4)GlcNAc(b1-3)Gal(b1-4)GlcNAc(b1-6)[Gal(b1-3)]GalNAc
# Method in brief: as §1
# [3] = molecular target: Gal(b1-4)GlcNAc(b1-3)Gal(b1-4)[Fuc(a1-3)]GlcNAc(b1-3)Gal(b1-4)[Fuc(a1-3)]GlcNAc
# Method in brief: as §1
# [4] = molecular target: Gal(b1-4)GlcNAc(b1-3)GalNAc
# Method in brief: as §1
# [5] = molecular target: Gal(b1-4)GlcNAc(b1-3)[Fuc(a1-3)GlcNAc(b1-6)]Gal(b1-4)Glc
# Method in brief: as §1
# [6] = molecular target: Gal(b1-4)GlcNAc(b1-3)[Gal(b1-4)GlcNAc(b1-6)]Gal(b1-4)GlcNAc
# Method in brief: as §1
# [7] = molecular target: Gal(b1-4)GlcNAc(b1-3)[GlcNAc(b1-6)]Gal(b1-4)GlcNAc
# Method in brief: as §1
# [8] = molecular target: Gal(b1-4)GlcNAc(b1-6)Gal(b1-4)GlcNAc
# Method in brief: as §1
# [9] = molecular target: Gal(b1-4)GlcNAc(b1-6)GalNAc
# Method in brief: as §1
# [10] = molecular target: Gal(b1-4)GlcNAc(b1-6)[Gal(b1-3)]GalNAc
# Method in brief: as §1
# [11] = molecular target: Gal(b1-4)GlcNAc(b1-6)[Gal(b1-4)GlcNAc(b1-3)]GalNAc
# Method in brief: as §1
# Gal(b1-4)GlcNAc6P = molecular target: Gal(b1-4)GlcNAc6P
# Method in brief: as §1
# Gal(b1-6)Gal = molecular target: Gal(b1-6)Gal
# Method in brief: as §1
# Gal3S(b1-3)GalNAc = molecular target: Gal3S(b1-3)GalNAc
# Method in brief: as §1
# Gal3S(b1-3)GlcNAc = molecular target: Gal3S(b1-3)GlcNAc
# Method in brief: as §1
# [12] = molecular target: Gal3S(b1-3)[Fuc(a1-4)]GlcNAc
# Method in brief: as §1
# Gal3S(b1-4)Glc = molecular target: Gal3S(b1-4)Glc
# Method in brief: as §1
# Gal3S(b1-4)Glc6S = molecular target: Gal3S(b1-4)Glc6S
# Method in brief: as §1
# Gal3S(b1-4)GlcNAc = molecular target: Gal3S(b1-4)GlcNAc
# Method in brief: as §1
# [13] = molecular target: Gal3S(b1-4)[Fuc(a1-3)]Glc6S
# Method in brief: as §1
# [14] = molecular target: Gal3S(b1-4)[Fuc(a1-3)]GlcNAc
# Method in brief: as §1
# [15] = molecular target: Gal3S(b1-4)[Fuc(a1-3)]GlcNAc6S
# Method in brief: as §1
# Gal3S4S(b1-4)GlcNAc = molecular target: Gal3S4S(b1-4)GlcNAc
# Method in brief: as §1
# Gal3S6S(b1-4)GlcNAc = molecular target: Gal3S6S(b1-4)GlcNAc
# Method in brief: as §1
# Gal3S6S(b1-4)GlcNAc6S = molecular target: Gal3S6S(b1-4)GlcNAc6S
# Method in brief: as §1
# Gal4S(b1-4)GlcNAc = molecular target: Gal4S(b1-4)GlcNAc
# Method in brief: as §1
# Gal4S6S(b1-4)GlcNAc = molecular target: Gal4S6S(b1-4)GlcNAc
# Method in brief: as §1
# Gal6P(b1-4)GlcNAc = molecular target: Gal6P(b1-4)GlcNAc
# Method in brief: as §1
# Gal6S(b1-3)GlcNAc = molecular target: Gal6S(b1-3)GlcNAc
# Method in brief: as §1
# Gal6S(b1-3)GlcNAc6S = molecular target: Gal6S(b1-3)GlcNAc6S
# Method in brief: as §1
# Gal6S(b1-4)Glc = molecular target: Gal6S(b1-4)Glc
# Method in brief: as §1
# Gal6S(b1-4)Glc6S = molecular target: Gal6S(b1-4)Glc6S
# Method in brief: as §1
# Gal6S(b1-4)GlcNAc = molecular target: Gal6S(b1-4)GlcNAc
# Method in brief: as §1
# Gal6S(b1-4)GlcNAc6S = molecular target: Gal6S(b1-4)GlcNAc6S
# Method in brief: as §1
# GalNAc(a1-3)Gal = molecular target: GalNAc(a1-3)Gal
# Method in brief: as §1
# GalNAc(a1-3)GalNAc = molecular target: GalNAc(a1-3)GalNAc
# Method in brief: as §1
# [16] = molecular target: GalNAc(a1-3)GalNAc(b1-3)Gal(a1-4)Gal(b1-4)Glc
# Method in brief: as §1
# [17] = molecular target: GalNAc(a1-3)GalNAc(b1-3)Gal(a1-4)Gal(b1-4)GlcNAc
# Method in brief: as §1
# GalNAc(b1-3)Gal = molecular target: GalNAc(b1-3)Gal
# Method in brief: as §1
# [18] = molecular target: GalNAc(b1-3)Gal(a1-4)Gal(b1-4)GlcNAc
# Method in brief: as §1
# [19] = molecular target: GalNAc(b1-3)Gal(a1-4)Gal(b1-4)GlcNAc(b1-3)Gal(b1-4)Glc
# Method in brief: as §1
# [20] = molecular target: GalNAc(b1-3)Gal(a1-6)Gal(b1-4)Glc
# Method in brief: as §1
# GalNAc(b1-3)GalNAc = molecular target: GalNAc(b1-3)GalNAc
# Method in brief: as §1
# GalNAc(b1-3)GlcNAc = molecular target: GalNAc(b1-3)GlcNAc
# Method in brief: as §1
# GalNAc(b1-4)Gal(b1-4)Glc = molecular target: GalNAc(b1-4)Gal(b1-4)Glc
# Method in brief: as §1
# GalNAc(b1-4)GlcNAc = molecular target: GalNAc(b1-4)GlcNAc
# Method in brief: as §1
# [21] = molecular target: GalNAc(b1-4)GlcNAc(b1-2)Man
# Method in brief: as §1
# [22] = molecular target: GalNAc(b1-4)GlcNAc(b1-2)Man(a1-3)[GalNAc(b1-4)GlcNAc(b1-2)Man(a1-6)]Man(b1-4)GlcNAc(b1-4)GlcNAc
# Method in brief: as §1
# [23] = molecular target: GalNAc(b1-4)GlcNAc(b1-3)GalNAc(b1-4)GlcNAc
# Method in brief: as §1
# GalNAc(b1-4)GlcNAc6S = molecular target: GalNAc(b1-4)GlcNAc6S
# Method in brief: as §1
# GalNAc(b1-6)GalNAc = molecular target: GalNAc(b1-6)GalNAc
# Method in brief: as §1
# GalNAc3S(b1-4)GlcNAc = molecular target: GalNAc3S(b1-4)GlcNAc
# Method in brief: as §1
binder,measurement,setting,value
KILRGVCKKIMRTFLRRISKKILTGKK [C7A (Sus scrofa)],glycan array binding signal (z-score),[1],1.72
same,glycan array binding signal (z-score),[2],2.48
same,glycan array binding signal (z-score),[3],-0.696
same,glycan array binding signal (z-score),[4],-0.848
same,glycan array binding signal (z-score),[5],0.528
same,glycan array binding signal (z-score),[6],-0.574
same,glycan array binding signal (z-score),[7],-0.227
same,glycan array binding signal (z-score),[8],0.295
same,glycan array binding signal (z-score),[9],0.647
same,glycan array binding signal (z-score),[10],0.074
same,glycan array binding signal (z-score),[11],-0.398
same,glycan array binding signal (z-score),Gal(b1-4)GlcNAc6P,-0.088
same,glycan array binding signal (z-score),Gal(b1-6)Gal,0.054
same,glycan array binding signal (z-score),Gal3S(b1-3)GalNAc,-0.766
same,glycan array binding signal (z-score),Gal3S(b1-3)GlcNAc,0.405
same,glycan array binding signal (z-score),[12],-0.272
same,glycan array binding signal (z-score),Gal3S(b1-4)Glc,0.34
same,glycan array binding signal (z-score),Gal3S(b1-4)Glc6S,0.213
same,glycan array binding signal (z-score),Gal3S(b1-4)GlcNAc,0.551
same,glycan array binding signal (z-score),[13],0.75
same,glycan array binding signal (z-score),[14],2.08
same,glycan array binding signal (z-score),[15],2.15
same,glycan array binding signal (z-score),Gal3S4S(b1-4)GlcNAc,1.1
same,glycan array binding signal (z-score),Gal3S6S(b1-4)GlcNAc,2.5
same,glycan array binding signal (z-score),Gal3S6S(b1-4)GlcNAc6S,2.04
same,glycan array binding signal (z-score),Gal4S(b1-4)GlcNAc,0.164
same,glycan array binding signal (z-score),Gal4S6S(b1-4)GlcNAc,-0.533
same,glycan array binding signal (z-score),Gal6P(b1-4)GlcNAc,-1.61
same,glycan array binding signal (z-score),Gal6S(b1-3)GlcNAc,1.07
same,glycan array binding signal (z-score),Gal6S(b1-3)GlcNAc6S,2.66
same,glycan array binding signal (z-score),Gal6S(b1-4)Glc,-0.286
same,glycan array binding signal (z-score),Gal6S(b1-4)Glc6S,-0.552
same,glycan array binding signal (z-score),Gal6S(b1-4)GlcNAc,0.044
same,glycan array binding signal (z-score),Gal6S(b1-4)GlcNAc6S,1.78
same,glycan array binding signal (z-score),GalNAc(a1-3)Gal,-0.414
same,glycan array binding signal (z-score),GalNAc(a1-3)GalNAc,-0.728
same,glycan array binding signal (z-score),[16],-1.07
same,glycan array binding signal (z-score),[17],0.64
same,glycan array binding signal (z-score),GalNAc(b1-3)Gal,0.294
same,glycan array binding signal (z-score),[18],-0.726
same,glycan array binding signal (z-score),[19],1.58
same,glycan array binding signal (z-score),[20],-1.14
same,glycan array binding signal (z-score),GalNAc(b1-3)GalNAc,-0.108
same,glycan array binding signal (z-score),GalNAc(b1-3)GlcNAc,-0.947
same,glycan array binding signal (z-score),GalNAc(b1-4)Gal(b1-4)Glc,0.214
same,glycan array binding signal (z-score),GalNAc(b1-4)GlcNAc,-1.06
same,glycan array binding signal (z-score),[21],-0.838
same,glycan array binding signal (z-score),[22],0.958
same,glycan array binding signal (z-score),[23],-0.269
same,glycan array binding signal (z-score),GalNAc(b1-4)GlcNAc6S,2.21
same,glycan array binding signal (z-score),GalNAc(b1-6)GalNAc,-1.26
same,glycan array binding signal (z-score),GalNAc3S(b1-4)GlcNAc,0.857

# Another view of some results above.
binder | measurement | setting | value
KILRGVCKKIMRTFLRRISKKILTGKK [C7A (Sus scrofa)] | glycan array binding signal (z-score) | GalNAc(b1-3)Gal | 0.294
same | glycan array binding signal (z-score) | [18] | -0.726
same | glycan array binding signal (z-score) | [19] | 1.58
same | glycan array binding signal (z-score) | [20] | -1.14
same | glycan array binding signal (z-score) | GalNAc(b1-3)GalNAc | -0.108
same | glycan array binding signal (z-score) | GalNAc(b1-3)GlcNAc | -0.947
same | glycan array binding signal (z-score) | GalNAc(b1-4)Gal(b1-4)Glc | 0.214
same | glycan array binding signal (z-score) | GalNAc(b1-4)GlcNAc | -1.06
same | glycan array binding signal (z-score) | [21] | -0.838
same | glycan array binding signal (z-score) | [22] | 0.958
same | glycan array binding signal (z-score) | [23] | -0.269
same | glycan array binding signal (z-score) | GalNAc(b1-4)GlcNAc6S | 2.21
same | glycan array binding signal (z-score) | GalNAc(b1-6)GalNAc | -1.26
same | glycan array binding signal (z-score) | GalNAc3S(b1-4)GlcNAc | 0.857

# Source: the supplement of paper PMC8728848
